In patent US6040293A, “Clavanins” (priority 1997, dated 2000):
Not every detail of the peptide structures is certain; ends, links or a residue may be inferred. No end group written: not given here.

What was measured:
Assay type in all cases: cell-based
[1] = test system: E. coli ML-35P; assay: radial diffusion assay
Protocol: (§1) In more detail, the filtrates (≈3.5 mg of protein by BCA) were concentrated to 2 ml by vacuum centrifugation in a Speed Vac Concentrator (Savant Instruments, Hicksville, N.Y.). Gel permeation chromatography was performed on a 1.2×65 cm BioGel P-10 gel permeation column with 5% acetic acid. Preparative continuous acid-urea PAGE electrophoresis was performed as described by Harwig, S. S. L. et al., Anal Biochem (1993) 208:382. Active fractions were pooled and purified by RP-HPLC a 4.6×250 mm Vydac C18 column, using various linear gradients of acetonitrile in 0.1% trifluoroacetic acid (TFA) or 0.13% heptafluorobutyric acid (HFBA). Throughout this multistep procedure, fractions were lyophilized, concentrated and tested for antimicrobial activity against Listeria monocytogenes strain EGD by a radial diffusion technique described in Lehrer, R. I. et al., J Immunol Methods (1991) 137:167. In these assays, the underlay gels contained 9 mM sodium phosphate and 1 mM sodium citrate buffer, 0.30 mg/ml of trypticase soy broth powder (BBL, Cockeysville, Md.) and 1% agarose at a final pH of 6.5.
In addition to Cecropin P1 and Magainin 1, the activity of Clavanin A(K) was also tested. Clavanin A(K) is identical to Clavanin A except that all of the histidine residues are replaced by lysine. […] The data are provided as minimal bacteriocidal concentrations expressed in μg/ml which are the X-intercepts of radial diffusion assays performed at pH 6.5 in an underlay that contained 10 mM buffer (9:1 citrate:phosphate), 1% agarose and 0.3 mg trypticase soy powder/ml.

[2] = test system: S. aureus
Protocol: as §1
Clavanin E(2-23) was tested in the standard underlay assay described in Example 1 herein wherein the underlay contained 10 mM sodium phosphate buffer, pH 7.4 and 1:100 trypticase soy broth with and without 200 mM NaCl. The known antimicrobials cecropin A, cecropin B, and cecropin P1 were used as controls. […]

[3] = test system: P. aeruginosa; assay: minimal bacteriocidal concentrations under various conditions; parameters: unit not given here; conditions: high salt (10 mM phosphate+100 mM NaCl), pH 5.5
Protocol: The Tables below show the minimal bacteriocidal concentrations of PG-1, histatin 5, and Clavanin E(3-23) against various organisms under various conditions. E(3-23) was active over a broad pH range and, unlike hisatin 5, it retained activity in the presence of physiological sodium chloride concentrations.
Low salt conditions (10 mM phosphate)
High salt conditions (10 mM phosphate+100 mM NaCl)

Substance	antimicrobial activity, amide compared with free-acid form [1]	effect of salt on activity ([1]; 100 mM NaCl added to underlay gels)	activity compared with cecropins / effect of salt ([2]; pH 7.4, 200 mM salt)	activity compared with cecropins ([2]; pH 7.4, printed 'in the presence of salt')	minimal bacteriocidal concentration [3]
VFQFLGKIIHHVGNFVHGFSHVF [synthetic Clavanin A free-acid form]	both behaved similarly	–	–	–	–
VFQFLGKIIHHVGNFVHGFSHVF-NH2 [Clavanin A, VFQFLGKIIHHVGNFVHGFSHVF*]	both behaved similarly	diminish but not to destroy the activity	–	–	–
KLLGKIIHHVGNFVHGFSHVF-NH2 [Clavanin E(3-23), KLL GKIIH HVGNF VHGFS HVF*]	–	–	dramatically more active	slightly more active than the cecropins	1.1
